# From US11224604B2, “Treatment of graft versus host disease in transplant patients” (PRIOTHERA LIMITED, priority 2013, dated 2022)
# For at least one compound, name, drawing or mass did not settle the structure.
# System: lethal GvHD in mice
# Experiment: lethal GvHD in mice (BALB/c splenic cells into cyclophosphamide-treated BDF1 mice)
# Type: in vivo
# Protocol: Female BALB/cAnNCrj mice and female Crj:BDF1 mice were purchased from CHARLES RIVER JAPAN and used at 10 weeks of age as donors and recipients, respectively.
# Spleens were collected from donor BALB/c mice. […] The single cell suspension was passed through a cell strainer (70 um, FALCON). The filtrate was centrifuged to collect the cell pellet. […] The number of nucleated cells in the suspension was calculated by staining using Turk's solution. […] This suspension served as a splenic cell suspension.
# Recipient BDF1 mice were treated with a dose of cyclophosphamide (SHIONOGI & CO., LTD.) at 300 mg/kg intraperitoneally on day0. One day after cyclophosphamide treatment, the BDF1 mice were intravenously injected with 0.25 mL
# (5×10^7 cells/mouse) of the splenic cell suspension from BALB/c mice to induce lethal GvHD.
# Treatment with a Compound (Control/CsA/KRP203)
# The compounds were orally administrated once a day from day 1 (just after injection of the splenic cells) to day 20. The mice were observed until day 70.
compound,measurement,setting,value
"NC(CO)(CO)CCc1ccc(Sc2cccc(OCc3ccccc3)c2)cc1Cl [KRP-203, 2-amino-2-[4-(3-benzyloxyphenylthio)-2-chlorophenyl]ethyl-propane-1,3-diol]",effect on lethal GVHD in mice,"0.03 mg/kg, p.o.",fully prevented lethal GVHD
same,course after withdrawal / discontinuation of treatment,"treatment stop at day 20, observed until day 70",sustained efficacy after discontinuation of treatment
